Earlier results as cited in patent US5202348A, “Thiarubrine antifungal agents” (The University of British Columbia, priority 1990, dated 1993).
At least one structure is not confirmed: it was looked up by name or label, or the drawing left a doubt.

System: murine cytomegalovirus and Sindbis virus
Settings: phototoxic activity; cited from earlier work

For CC#CC#CC#Cc1ccccc1 [phenylheptatriyne], the Order of potency is given as “alpha-terthienyl thiarubrine-A > phenylheptatriyne > ACBP-thiophene > thiophene-A”.
